Our source for the Papp A→B values is paper PMC11348715 (Chemical Science, 2024).

This series in a line: Caco-2 permeability assay. In kind it is in vitro ADME. Particulars: human. (In general: Caco-2 monolayers are a common model of the intestinal barrier.)

In general, Papp A→B refers to the apparent permeability from the apical to the basolateral side of a cell layer. Read a high Papp A→B as ready permeation. Molecule `CC(C)NCC(O)COc1ccc(CC(N)=O)cc1` (stereo not shown) [atenolol] yielded a Papp A→B at 10 µM of 0.121 ×10⁻⁶ cm/s.
